Source: publication PMC12521514
No constants are given. Whether binding was seen depends on the method and setting. Some binding calls cover weakened binding; strength is not graded here.

Target: T1, Staphylococcus aureus ClpP wild type (Staphylococcus aureus), Q2G036
T1 chain: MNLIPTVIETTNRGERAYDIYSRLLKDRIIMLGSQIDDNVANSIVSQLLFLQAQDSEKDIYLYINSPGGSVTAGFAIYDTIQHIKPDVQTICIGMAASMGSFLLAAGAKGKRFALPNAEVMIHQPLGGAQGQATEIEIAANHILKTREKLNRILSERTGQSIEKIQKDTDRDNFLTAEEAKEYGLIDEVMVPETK
Settings: remark: other sources report otherwise

B1: Staphylococcus aureus ClpP wild type, Q2G036 1-195 (enzyme)
chain: T1 chain
- binding: binds
